# Results reported in PubChem BioAssay AID504834 (National Center for Advancing Translational Sciences (NCATS), 2011).
# Several values for one entry are separate records, joined by “and”; a condition that tells them apart may be missing. Equal values may be shown once. Out of some 320,000 compounds screened, about 22,000 (6.9%) were called active. Inconclusive means that the source gave no clear call. Such entries were picked first, then a sample of the others. Calls follow the shape of the dose curve; as a rule, active = well fitted inhibition curve with a large enough effect; inconclusive = small, poorly fitted or top-dose-only effect, or another doubt; inactive = no such curve, though single readings can be large or run the other way. A potency beside an inconclusive call is a rough fit, not a confirmed value.
# Assay: Primary qHTS for delayed death inhibitors of the malarial parasite plastid, 96 hour incubation
# Conditions: P. falciparum luciferase reporter growth; series mostly up to 28.7 µM
# Method in brief: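 Compounds incubated with erythrocytes infected by luciferase-expressing P. falciparum (2% hematocrit, 0.05% parasitemia final) for 96 hours, 37 C in 5% CO2. Growth inhibition scored as decreased luciferase luminescence.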
# Potency is read from the fitted curve at half-maximal effect.
row,SMILES,Potency
1,COc1cc2c(cc1OC)CN(C(=O)NS(=O)(=O)c1ccc(C)cc1)CC2,inactive
2,CC1Cc2cc(/C=C3/SC(=S)NC3=O)ccc2O1 (stereo not drawn),inactive
3,NC(=O)NCc1ccc(C(=O)OCc2ccncc2)cc1,inactive
4,O=C(Nc1ccc(NC(=O)c2ccc(Cl)cc2Cl)cc1)c1ccc2c(c1)OCO2,"inconclusive: 18.5 µM [inhibitor, partial curve, poor fit]"
5,O=C(Nc1ccccc1)c1nccn1Cc1ccc(F)cc1,inactive
6,Cc1nn(C)c(C(=O)N/N=C/c2cccnc2)c1Br,"inconclusive: 9.28 µM [inhibitor, partial curve, poor fit]"
7,COc1ccccc1S(=O)Cc1ccc(C(=O)O)o1 (stereo not drawn),"inconclusive: 7.38 µM [inhibitor, partial curve]"
8,CCC(=O)N(Cc1ccc(S(N)(=O)=O)cc1)C1CC(=O)N(c2ccc(OC)cc2)C1=O (stereo not drawn),"inconclusive: 16.5 µM [inhibitor, single point]"
9,FC(F)(F)c1nnc2ccc(N3CCCCCC3)nn12,inactive
10,Cc1nc(NC(=O)/C=C/c2ccc(Cl)cc2Cl)sc1C(=O)N(C)C,"inconclusive: 8.28 µM [inhibitor, partial curve, poor fit]"
11,CC(C)Cc1nnc(NC(=O)C2CCN(C(=O)c3ccc(F)cc3)CC2)s1,inactive
12,CCOc1nc(C)ccc1-c1noc(-c2cccnc2)n1,"inconclusive: 18.5 µM [inhibitor, single point]"
13,O=C1C=Cc2ccccc2C1=O,"inconclusive: 13.1 µM [inhibitor, partial curve, poor fit]"
14,Cc1ccc(C2(C(F)(F)F)NC(=O)N3N=C4CCCCCN4C3=C2C#N)cc1 (stereo not drawn),inactive
15,CC(N)C(=O)OC(C)(C)Cc1ccc(Cl)cc1 (stereo not drawn),"inactive and inconclusive: 2.13 µM [inhibitor, partial curve]"
16,O=C(c1ccc(OC2CCN(C(=O)C3CC3)CC2)cc1)N(CCO)Cc1ccccc1,inactive
17,CC1(C)C([N+](=O)[O-])C(c2ccc(F)cc2)NC(c2ccc(F)cc2)C1[N+](=O)[O-] (stereo not drawn),"inconclusive: 11.7 µM [inhibitor, single point]"
18,CC(=O)c1ccc(N(C(=O)CNC(=O)c2ccco2)C(C(=O)NC2CCCC2)c2ccncc2)cc1 (stereo not drawn),inactive
19,CC1CCCCN1C(=O)C1CCN(S(=O)(=O)c2ccc(-n3cnnn3)cc2)CC1 (stereo not drawn),"inconclusive: 2.62 µM [inhibitor, full curve]"
20,O=C1[C@H]2[C@@H](c3ccc(F)cc3)N3C(=O)N(c4ccc(Br)cc4)C(=O)[C@@]3(Cc3ccc(Cl)cc3)[C@H]2C(=O)N1C1CCCCC1,active: 3.29 µM
21,CC1CCCN(C(=O)CSc2nnc(-c3cccs3)o2)C1 (stereo not drawn),inactive
22,O=C(NCC1COc2ccccc2O1)c1ccco1 (stereo not drawn),"inconclusive: 18.5 µM [inhibitor, partial curve, poor fit]"
23,COc1ccc(C(CNC(=O)COc2ccc(-c3ccccc3)cc2)N2CCOCC2)cc1 (stereo not drawn),"inconclusive: 0.262 µM [inhibitor, full curve]"
24,CCCC(=O)Nc1cc(-c2nc3ncccc3o2)ccc1C,inactive
25,O=C(NCc1cccs1)C1CCN(S(=O)(=O)c2cccc3nsnc23)CC1,"inconclusive: 2.94 µM [inhibitor, full curve, poor fit]"

# Five compounds already listed, ordered by length of the SMILES, smallest number first.
row,SMILES,Potency
7,COc1ccccc1S(=O)Cc1ccc(C(=O)O)o1 (stereo not drawn),"inconclusive: 7.38 µM [inhibitor, partial curve]"
3,NC(=O)NCc1ccc(C(=O)OCc2ccncc2)cc1,inactive
21,CC1CCCN(C(=O)CSc2nnc(-c3cccs3)o2)C1 (stereo not drawn),inactive
1,COc1cc2c(cc1OC)CN(C(=O)NS(=O)(=O)c1ccc(C)cc1)CC2,inactive
16,O=C(c1ccc(OC2CCN(C(=O)C3CC3)CC2)cc1)N(CCO)Cc1ccccc1,inactive

# Next part

row,SMILES,Potency
1,c1ccc(C[C@H]2CN=C(Nc3ccccc3)N2CCC2CCCC2)cc1,"inconclusive: 14.7 µM [inhibitor, single point]"
2,COc1ccccc1Nc1nnc(SCc2cc(=O)n3ccsc3n2)s1,active: 4.65 µM
3,CSCC(=O)N1CCCC(N2CCN(c3cccc(C(F)(F)F)c3)CC2)C1 (stereo not drawn),"inconclusive: 18.5 µM [inhibitor, single point]"
4,CNC(=S)NNC(=O)Cn1ccc(C)n1,inactive
5,Cc1cccnc1NC(=O)NC(=O)c1ccc(C(C)(C)C)s1,inactive
6,O=C(NCCCN1CCOCC1)C(=O)NCc1ccc(Cl)cc1,inactive
7,COc1ccc(NC(=O)CCc2ccccc2)cc1S(=O)(=O)N1CCCCC1,"inconclusive: 18.5 µM [inhibitor, single point]"
8,CCC(C)c1ccc(NC(=S)NCc2ccccc2OC)cc1 (stereo not drawn),"inconclusive: 18.5 µM [inhibitor, single point]"
9,O=C(NC1CCCCC1)C(c1cccnc1)N(C(=O)c1csnn1)c1ccc(F)cc1 (stereo not drawn),"inconclusive: 11.7 µM [inhibitor, partial curve, poor fit]"
10,COc1cccc(N2CCN(C(=O)c3cn(Cc4ccccc4)nc3-c3cccnc3)CC2)c1,"inconclusive: 10.4 µM [inhibitor, single point]"
11,COc1ccc(CN(Cc2cccnc2)S(=O)(=O)c2ccc(-n3cnnn3)c(OC)c2)cc1,inactive
12,O=C(CSc1nnc(-c2c[nH]c3ccccc23)o1)N1c2ccccc2CCc2ccccc21,inactive
13,O=C(Cn1c(=O)n(CC(=O)N2CCCCC2)c(=O)c2sccc21)NCc1ccccc1,"inconclusive: 16.5 µM [inhibitor, partial curve, poor fit]"
14,Cc1noc(C)c1S(=O)(=O)N(CCc1ccccc1)Cc1ccccc1,"inconclusive: 10.4 µM [inhibitor, single point]"
15,COC(=O)CCCN=C1SCCN1Cc1ccccc1,inactive
16,CCn1c(SCC(=O)N/N=C/C=C/c2ccccc2[N+](=O)[O-])nnc1-c1ccc(Cl)cc1,"inconclusive: 18.5 µM [inhibitor, single point]"
17,COc1cc2c(cc1OC)CN(C(=O)/C=C/c1cccc([N+](=O)[O-])c1)CC2,inactive
18,COc1ccc(NC(=O)CN2CCCCC2)c([N+](=O)[O-])c1,inactive
19,CC(=O)c1ccc(-n2nncc2C(C)(C)C)cc1,inactive
20,CCOc1ccc(NC(=O)COC(=O)C23CC4CC(CC(C4)C2)C3)c([N+](=O)[O-])c1,"inconclusive: 18.5 µM [inhibitor, single point]"
21,CCc1cccc(NC(=O)c2cccc(S(=O)(=O)N3CCN(C)CC3)c2)c1,inactive
22,COC(=O)c1[nH]c2ccc(Br)cc2c1NC(=O)CN1CCN(C2CCCCC2)CC1,active: 2.62 µM
23,O=[N+]([O-])c1cccc(/C=N/n2c(-c3cccnc3)n[nH]c2=S)c1,inactive
24,CCN(CC)S(=O)(=O)c1ccc(S(=O)(=O)N2CCCC2)cc1,"inconclusive: 4.65 µM [inhibitor, partial curve, poor fit]"
25,CCOC(CCNC(=O)c1cn(CCOC)c(=O)c2c1c1ccccc1n2C)OCC,"inconclusive: 4.15 µM [inhibitor, full curve]"

row,SMILES,Potency
1,Cn1cc(CN2CCC(C(=O)Nc3ccc(Oc4ccccc4F)cc3)CC2)cn1,"inconclusive: 8.28 µM [inhibitor, single point]"
2,COCC(C)n1c(SCc2cc(C(=O)OC)c(C)o2)nc2ccccc2c1=O (stereo not drawn),"inconclusive: 16.5 µM [inhibitor, single point]"
3,Cc1ccccc1NC(=O)Cc1nnc(SCC(=O)NC2CCCC2)n1C,inactive
4,CCc1nnc(NC(=O)c2cccc(OC)c2)s1,"inconclusive: 0.522 µM [inhibitor, full curve]"
5,Cc1ccc(S(=O)(=O)N2CCN(C(=O)c3ccc(OCc4c(C)noc4C)cc3)CC2)cc1,inactive
6,CN(C(=O)c1ccco1)c1nc(-c2ccc(Cl)cc2)cs1,active: 6.57 µM
7,Oc1csc(Cc2nc(-c3ccc4ccccc4c3)cs2)n1,inactive
8,O=C(Nc1ccnn1C1CCN(Cc2ccc(C#CCCO)cc2)CC1)c1cccc(F)c1,"inconclusive: 2.62 µM [inhibitor, partial curve, poor fit]"
9,CN1C(=O)C(C)(C)c2cc(S(=O)(=O)N3CCCC(C(=O)NCc4ccccc4Cl)C3)ccc21 (stereo not drawn),"inconclusive: 1.47 µM [inhibitor, partial curve]"
10,COc1cc(CCC(=O)OCC(=O)Nc2ccc(C)cc2Cl)cc(OC)c1OC,inactive
11,Cc1cc(OCC(=O)NCc2ccncc2)c2c(C)c(C)c(=O)oc2c1,"inconclusive: 18.5 µM [inhibitor, single point]"
12,Cc1cccc(NS(=O)(=O)c2coc(C(N)=O)c2)c1C,"inconclusive: 18.5 µM [inhibitor, single point]"
13,N#Cc1ccc(C(CC(=O)O)N2Cc3ccccc3C2=O)cc1 (stereo not drawn),inactive
14,C=CCOc1cccc(CNc2ccc3[nH]c(=O)[nH]c3c2)c1,inactive
15,Cc1ccc([N+](=O)[O-])cc1Nc1nc(N2CCOCC2)nc(N2CCOCC2)n1,"inconclusive: 6.57 µM [inhibitor, partial curve]"
16,COc1cccc(CN2CCNC(=O)C2CC(=O)NCCc2nc(C)c(C)s2)c1OC (stereo not drawn),inactive
17,CSc1nc(Sc2ccc(Cl)cc2)c2ccccc2n1,active: 4.65 µM
18,O=S(=O)(NCCC1=CCCCC1)c1c(Cl)cccc1Cl,"inconclusive: 11.7 µM [inhibitor, single point]"
19,CCC(=O)c1cn(Cc2ccc(C#N)cc2)c2ccccc12,"inconclusive: 9.28 µM [inhibitor, single point]"
20,COc1ccc(N(C)C(=O)c2cnc(N3CCN(c4ncccn4)CC3)c3ccccc23)cc1,"inconclusive: 0.0033 µM [inhibitor, full curve, poor fit]"
21,COc1cc(NC(=O)C/C(C)=N/NC(=O)C2CCCCC2)c(OC)cc1Cl,"inconclusive: 11.7 µM [inhibitor, partial curve]"
22,COc1ccc(CCN2CC(C(=O)N(C)C3CCOCC3)CCC2=O)cc1 (stereo not drawn),inactive
23,Cc1ccc(N2CCN(S(=O)(=O)c3ccc4c(c3)oc(=O)n4C)CC2C)cc1 (stereo not drawn),"inconclusive: 2.94 µM [inhibitor, partial curve, poor fit]"

# Not a retest: entries from further up.
row,SMILES,Potency
10,COc1cc(CCC(=O)OCC(=O)Nc2ccc(C)cc2Cl)cc(OC)c1OC,inactive
11,Cc1cc(OCC(=O)NCc2ccncc2)c2c(C)c(C)c(=O)oc2c1,"inconclusive: 18.5 µM [inhibitor, single point]"
